Test system: OATP1B2
Test: Untargeted metabolomics of plasma and DRG, WT vs OATP1B2-deficient mice
Type: in vivo, mouse
Conditions: untargeted metabolomics, WT vs OATP1B2-deficient mice
[1] = supplement sheet "Figure 5B" (volcano plot)
[2] = Figure 5B source data (volcano plot), log2 fold change of metabolite level

Row | Compound | Log2FoldChange [1] | Log2FoldChange (sheet "Figure 5C") | Log2FoldChange (supplement sheet "Figure 5B") | Log2FoldChange [2]
1 | CCCCC/C=C\C/C=C\C/C=C\C/C=C\CCCC(=O)OC[C@@H](O)COP(=O)([O-])OCC[N+](C)(C)C [1-arachidonoyl-GPC (20:4n6)*] | 0.7049 | 0.4222 | – | –
2 | CCCCC/C=C\C/C=C\C/C=C\C/C=C\CCCC(=O)OC[C@@H](O)COP(=O)(O)OCCN [1-arachidonoyl-GPE (20:4n6)*] | 0.5753 | 0.2265 | – | –
3 | CCCCC/C=C\C/C=C\C/C=C\C/C=C\CCCC(=O)OC[C@@H](O)COP(=O)(O)OC1C(O)C(O)C(O)C(O)C1O (stereo partly shown) [1-arachidonoyl-GPI (20:4)*] | 0.5656 | 0.6041 | – | –
4 | CCCCC/C=C\C/C=C\C/C=C\C/C=C\CCCC(=O)OCC(O)CO (stereo not shown) [1-arachidonylglycerol (20:4)] | – | 0.4005 | -0.08927 | –
5 | CC[C@H](C)[C@H](NC(C)C(=O)O)C(=O)O (stereo partly shown) [1-carboxyethylisoleucine] | – | -0.2515 | 0.2016 | –
6 | CC(C)C[C@H](NC(C)C(=O)O)C(=O)O (stereo partly shown) [1-carboxyethylleucine] | 0.2265 | -0.2009 | – | –
7 | CC(N[C@@H](Cc1ccccc1)C(=O)O)C(=O)O (stereo partly shown) [1-carboxyethylphenylalanine] | 0.4751 | – | – | –
8 | CC(N[C@@H](Cc1ccc(O)cc1)C(=O)O)C(=O)O (stereo partly shown) [1-carboxyethyltyrosine] | 0.4436 | – | – | –
9 | CC(N[C@H](C(=O)O)C(C)C)C(=O)O (stereo partly shown) [1-carboxyethylvaline] | – | -0.1361 | – | –
10 | CCCCC/C=C\C/C=C\C/C=C\CCCCCCC(=O)OCC(O)CO (stereo not shown) [1-dihomo-linolenylglycerol (20:3)] | – | – | -0.074 | –
11 | CCC=CCC=CCC=CCC=CCC=CCC=CCCC(=O)OCC(O)CO (stereo not shown) [1-docosahexaenoylglycerol (22:6)] | – | 0.4647 | – | -0.3959
12 | CCCCCCCCCCCCCCCCCCCCCCCC(=O)OCC(O)COP(=O)([O-])OCC[N+](C)(C)C (stereo not shown) [1-lignoceroyl-GPC (24:0)] | 0.4436 | 0.05658 | – | –
13 | CC/C=C\C/C=C\C/C=C\CCCCCCCC(=O)OC[C@@H](O)COP(=O)([O-])OCC[N+](C)(C)C [1-linolenoyl-GPC (18:3)*] | 1.091 | – | – | –
14 | CC/C=C\C/C=C\C/C=C\CCCCCCCC(=O)OCC(O)CO (stereo not shown) [1-linolenoylglycerol (18:3)] | – | – | -0.1203 | –
15 | CCCCC/C=C\C/C=C\CCCCCCCC(=O)OC[C@@H](O)COP(=O)(O)O [1-linoleoyl-GPA (18:2)*] | 1.239 | – | – | –
16 | CCCCC/C=C\C/C=C\CCCCCCCC(=O)OC[C@@H](O)COP(=O)([O-])OCC[N+](C)(C)C [1-linoleoyl-GPC (18:2)] | 0.696 | 0.3103 | – | –
17 | CCCCC/C=C\C/C=C\CCCCCCCC(=O)OC[C@@H](O)COP(=O)(O)OCCN [1-linoleoyl-GPE (18:2)*] | 0.9561 | 0.3674 | – | –
18 | CCCCC/C=C\C/C=C\CCCCCCCC(=O)OC[C@@H](O)COP(=O)(O)OCC(O)CO (stereo partly shown) [1-linoleoyl-GPG (18:2)*] | 1.891 | 0.7225 | – | –
19 | CCCCC/C=C\C/C=C\CCCCCCCC(=O)OC[C@@H](O)COP(=O)(O)OC1[C@H](O)[C@H](O)C(O)[C@H](O)[C@H]1O (stereo partly shown) [1-linoleoyl-GPI (18:2)*] | 0.7225 | 0.7485 | – | –
20 | CCCCC/C=C\C/C=C\CCCCCCCC(=O)OC[C@@H](O)COP(=O)(O)OC[C@H](N)C(=O)O [1-linoleoyl-GPS (18:2)*] | – | 0.669 | 0.2016 | –
21 | CCCCC/C=C\C/C=C\CCCCCCCC(=O)OCC(O)CO (stereo not shown) [1-linoleoylglycerol (18:2)] | – | 0.3674 | -0.152 | –
22 | Cn1cnc(CC(=O)O)c1 [1-methyl-4-imidazoleacetate] | – | 0.4751 | – | –
23 | Cn1cnc(CCN)c1 [1-methylhistamine] | 0.2265 | 0.263 | – | –
24 | Cn1cnc(C[C@H](N)C(=O)O)c1 [1-methylhistidine] | – | 0.3219 | -0.1047 | –
25 | C[n+]1cccc(C(N)=O)c1 [1-methylnicotinamide] | – | -0.074 | – | -0.2345
26 | CCCCCCCCCCCCCCCC(=O)OC(COC(=O)CCCCCCCCCCCCC)COP(=O)([O-])OCC[N+](C)(C)C (stereo not shown) [1-myristoyl-2-palmitoyl-GPC (14:0/16:0)] | 0.6781 | -0.1203 | – | –
27 | CCCCCCCCCCCCCC(=O)OCC(O)CO (stereo not shown) [1-myristoylglycerol (14:0)] | – | 0.3785 | – | -0.2176

Row | Compound | Log2FoldChange [1] | Log2FoldChange (sheet "Figure 5C") | Log2FoldChange (supplement sheet "Figure 5B") | Log2FoldChange [2]
28 | CCCCC/C=C\C/C=C\C/C=C\C/C=C\CCCC(=O)O[C@H](COC(=O)CCCCCCC/C=C\CCCCCCCC)COP(=O)(O)OCCN [1-oleoyl-2-arachidonoyl-GPE (18:1/20:4)*] | – | -0.152 | 0.189 | –
29 | CCCCC/C=C\C/C=C\C/C=C\C/C=C\CCCC(=O)O[C@H](COC(=O)CCCCCCC/C=C\CCCCCCCC)COP(=O)(O)OC1C(O)C(O)C(O)C(O)C1O (stereo partly shown) [1-oleoyl-2-arachidonoyl-GPI (18:1/20:4)*] | 1.0072 | -0.415 | – | –
30 | CCCCC/C=C\C/C=C\CCCCCCCC(=O)O[C@H](COC(=O)CCCCCCC/C=C\CCCCCCCC)COP(=O)([O-])OCC[N+](C)(C)C [1-oleoyl-2-linoleoyl-GPC (18:1/18:2)*] | – | -0.1361 | – | –
31 | CCCCC/C=C\C/C=C\CCCCCCCC(=O)O[C@H](COC(=O)CCCCCCC/C=C\CCCCCCCC)COP(=O)(O)OCCN [1-oleoyl-2-linoleoyl-GPE (18:1/18:2)*] | 0.275 | -0.152 | – | –
32 | CCCCCCCC/C=C\CCCCCCCC(=O)OC[C@@H](O)COP(=O)([O-])OCC[N+](C)(C)C [1-oleoyl-GPC (18:1)] | 0.8319 | 0.3103 | – | –
33 | CCCCCCCC/C=C\CCCCCCCC(=O)OC[C@@H](O)COP(=O)(O)OCCN [1-oleoyl-GPE (18:1)] | 1.036 | 0.08406 | – | –
34 | CCCCCCCC/C=C\CCCCCCCC(=O)OC[C@@H](O)COP(=O)(O)OCC(O)CO (stereo partly shown) [1-oleoyl-GPG (18:1)*] | 3.034 | – | – | –
35 | CCCCCCCC/C=C\CCCCCCCC(=O)OC[C@@H](O)COP(=O)(O)OC1[C@H](O)[C@H](O)C(O)[C@H](O)[C@H]1O (stereo partly shown) [1-oleoyl-GPI (18:1)] | 0.903 | – | – | –
36 | CCCCCCCC/C=C\CCCCCCCC(=O)OC[C@@H](O)COP(=O)(O)OC[C@H](N)C(=O)O [1-oleoyl-GPS (18:1)] | – | 0.251 | – | –
37 | CCCCCCCC/C=C\CCCCCCCC(=O)OCC(O)CO (stereo not shown) [1-oleoylglycerol (18:1)] | – | – | -0.074 | –
38 | CCCCCC/C=C\CCCCCCCC(=O)OC[C@@H](O)COP(=O)([O-])OCC[N+](C)(C)C [1-palmitoleoyl-GPC (16:1)*] | 0.9782 | 0.2016 | – | –
39 | CCCCCC/C=C\CCCCCCCC(=O)OCC(O)CO (stereo not shown) [1-palmitoleoylglycerol (16:1)*] | – | 0.2869 | – | –
40 | CCCCC/C=C\C/C=C\CCCCCCCC(=O)O[C@H](COC(=O)CCCCCCCCCCCCCCC)COP(=O)([O-])OCC[N+](C)(C)C [1-palmitoyl-2-linoleoyl-GPC (16:0/18:2)] | – | – | 0.1763 | –
41 | CCCCC/C=C\C/C=C\CCCCCCCC(=O)O[C@H](COC(=O)CCCCCCCCCCCCCCC)COP(=O)(O)OCCN [1-palmitoyl-2-linoleoyl-GPE (16:0/18:2)] | – | -0.2176 | 0.1763 | –
42 | CCCCC/C=C\C/C=C\CCCCCCCC(=O)O[C@H](COC(=O)CCCCCCCCCCCCCCC)COP(=O)(O)OC1C(O)C(O)C(O)C(O)C1O (stereo partly shown) [1-palmitoyl-2-linoleoyl-GPI (16:0/18:2)] | 0.251 | – | – | –
43 | CCCCCCCC/C=C\CCCCCCCC(=O)O[C@H](COC(=O)CCCCCCCCCCCCCCC)COP(=O)([O-])OCC[N+](C)(C)C [1-palmitoyl-2-oleoyl-GPC (16:0/18:1)] | 0.3785 | -0.1361 | – | –
44 | CCCCCCCC/C=C\CCCCCCCC(=O)O[C@H](COC(=O)CCCCCCCCCCCCCCC)COP(=O)(O)OCCN [1-palmitoyl-2-oleoyl-GPE (16:0/18:1)] | 0.546 | -0.2863 | – | –
45 | CCCCCCCC/C=C\CCCCCCCC(=O)O[C@H](COC(=O)CCCCCCCCCCCCCCC)COP(=O)(O)OC1[C@H](O)[C@H](O)C(O)[C@H](O)[C@H]1O (stereo partly shown) [1-palmitoyl-2-oleoyl-GPI (16:0/18:1)*] | 0.2869 | – | – | –
46 | CCCCCCCC/C=C\CCCCCCCC(=O)O[C@H](COC(=O)CCCCCCCCCCCCCCC)COP(=O)(O)OC[C@H](N)C(=O)O [1-palmitoyl-2-oleoyl-GPS (16:0/18:1)] | – | -0.4739 | – | –
47 | CCCCCCCCCCCCCCCCCC(=O)O[C@H](COC(=O)CCCCCCCCCCCCCCC)COP(=O)([O-])OCC[N+](C)(C)C [1-palmitoyl-2-stearoyl-GPC (16:0/18:0)] | – | -0.3585 | 0.189 | –
48 | CCCCCCCCCCCCCCCC(=O)OC[C@@H](O)COP(=O)([O-])OCC[N+](C)(C)C [1-palmitoyl-GPC (16:0)] | 0.3674 | 0.4005 | – | –
49 | CCCCCCCCCCCCCCCC(=O)OC[C@@H](O)COP(=O)(O)OCCN [1-palmitoyl-GPE (16:0)] | 0.7908 | 0.111 | – | –
50 | CCCCCCCCCCCCCCCC(=O)OCC(O)COP(=O)(O)OCC(O)CO (stereo not shown) [1-palmitoyl-GPG (16:0)*] | 2.433 | 0.4005 | – | –
51 | CCCCCCCCCCCCCCCC(=O)OC[C@@H](O)COP(=O)(O)OC1[C@H](O)[C@H](O)C(O)[C@H](O)[C@H]1O (stereo partly shown) [1-palmitoyl-GPI (16:0)] | – | 0.2016 | 0.1763 | –
52 | CCCCCCCCCCCCCCCC(=O)OCC(O)COP(=O)(O)OC[C@H](N)C(=O)O (stereo partly shown) [1-palmitoyl-GPS (16:0)*] | – | 0.251 | – | –
53 | CCCCCCCCCCCCCCCC(=O)OCC(O)CO (stereo not shown) [1-palmitoylglycerol (16:0)] | – | 0.4005 | – | –
54 | O=C(O)Cc1cn([C@@H]2O[C@H](CO)[C@@H](O)[C@H]2O)cn1 [1-ribosyl-imidazoleacetate*] | 0.7137 | 0.251 | – | –

From paper PMC10443802 (JCI Insight, 2023)
